Experimental data: US20160159919A1
Numbering of substitutions follows the chain as printed. No constants are given. Whether binding was seen depends on the method and setting. Some entries that bind do so weakly or less than the wild type. Each block holds one binder with its values, some of them ahead of it.

The chains behind the UniProt entries cited, without tags or fusion partners. Where a name states a change or a piece, a line headed by the entry shows the natural chain unless it says otherwise.
UniProt O14944: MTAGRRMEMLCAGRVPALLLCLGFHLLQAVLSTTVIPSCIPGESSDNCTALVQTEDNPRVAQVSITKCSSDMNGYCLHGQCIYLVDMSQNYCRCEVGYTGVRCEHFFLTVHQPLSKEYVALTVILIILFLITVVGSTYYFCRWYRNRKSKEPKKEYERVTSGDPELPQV

Legend:
[1] = target: Human EREG (Biacore analyte) (human) (UniProt O14944); assay: SPR (Biacore T100, Reference Example 24): antibody captured by Protein A, human EREG as analyte; bar = KD of the antibody / KD of chimeric EP27 (cH-G1/cL-k)
[2] = target: Human EREG (Biacore analyte) (human) (UniProt O14944); assay: SPR (Biacore T100, Reference Example 24): antibody captured by Protein A, human EREG as analyte; bar = KD of the antibody / KD of chimeric EP27
[3] = target: Human EREG (Biacore analyte) (human) (UniProt O14944); assay: SPR (Biacore), FIG. 3
[4] = target: cynomolgus EREG (Biacore analyte) (cynomolgus monkey); assay: SPR (Biacore), FIG. 4
[5] = target: cynomolgus EREG (Biacore analyte) (cynomolgus monkey); assay: SPR (Biacore T100, Reference Example 24): antibody captured by Protein A, cynomolgus and human EREG as analytes; bar = KD for monkey Epiregulin / KD for human Epiregulin

binding [2]: binds | binding [3]: binds | binding [4]: binds | binding [5]: binds
B5: H212-G1d/L48-k (antibody, human IgG1, kappa, V domains shown)
VH: QDQLVQSGAEVKKPGASVKVSCKASGFNIKDTYIQWVRQAPGQGLEWMGRIDPLRKQTKYREKFEGRVTITADTSTNTAYMELSSLRSEDTAVYYCVRSGREFDFWGQGTLVTVSS
VL: DIQMTQSPSSLSASVGDRVTITCKASQDIHKYIAWYQQKPGQAPRLLIQYTSTLQPGVPSRFSGSGSGTDYTFTISSLQPEDIATYYCLQYDNRRTFGGGTKVEIKR

binding [3]: binds | binding [4]: binds
B9: H240-G1d/L73-k (antibody, human IgG1, kappa, V domains shown)
VH: B5 VH with F105Y
VL: B5 VL with K24R, D92E, N93Q, R94L

binding [3]: binds | binding [4]: binds
B13: H206-G1d/L73-k (antibody, human IgG1, kappa, V domains shown)
VH: B5 VH with K13N, K56R
VL: B5 VL with K24R, D92E, N93Q, R94L

binding [3]: binds | binding [4]: binds
B14: H240-G1d/L53-k (antibody, human IgG1, kappa, V domains shown)
VH: B5 VH with F105Y
VL: B5 VL with K24R, R94L

binding [2]: binds | binding [3]: binds | binding [4]: binds | binding [5]: binds
B16: H213-G1d/LB-k (antibody, human IgG1, kappa, V domains shown)
VH: B5 VH with K56H
VL: B5 VL with R94L

binding [2]: binds | binding [3]: binds | binding [4]: binds | binding [5]: binds
B17: H207-G1d/LB-k (antibody, human IgG1, kappa, V domains shown)
VH: B5 VH with K56R, T74E
VL: B5 VL with R94L

binding [2]: binds | binding [3]: binds | binding [4]: binds | binding [5]: binds
B18: H212-G1d/LB-k (antibody, human IgG1, kappa, V domains shown)
VH: B5 VH
VL: B5 VL with R94L

binding [2]: binds | binding [3]: binds | binding [4]: binds | binding [5]: binds
B20: H213-G1d/L48-k (antibody, human IgG1, kappa, V domains shown)
VH: B5 VH with K56H
VL: B5 VL

binding [2]: binds | binding [3]: binds | binding [4]: binds | binding [5]: binds
B21: H211-G1d/LB-k (antibody, human IgG1, kappa, V domains shown)
VH: B5 VH with K56R, R61H
VL: B5 VL with R94L

binding [2]: binds | binding [3]: binds | binding [4]: binds | binding [5]: binds
B23: H207-G1d/L48-k (antibody, human IgG1, kappa, V domains shown)
VH: B5 VH with K56R, T74E
VL: B5 VL

binding [2]: binds | binding [3]: binds | binding [4]: binds | binding [5]: binds
B24: H210-G1d/LB-k (antibody, human IgG1, kappa, V domains shown)
VH: B5 VH with K56R, R61K
VL: B5 VL with R94L

binding [3]: binds
B25: H213-G1d/L53-k (antibody, human IgG1, kappa, V domains shown)
VH: B5 VH with K56H
VL: B5 VL with K24R, R94L

binding [2]: binds | binding [3]: binds | binding [4]: binds | binding [5]: binds
B26: H224-G1d/L53-k (antibody, human IgG1, kappa, V domains shown)
VH: B5 VH with K13N, K56R, S88A, F105Y
VL: B5 VL with K24R, R94L

binding [2]: binds | binding [3]: binds | binding [4]: binds | binding [5]: binds
B33: H211-G1d/L48-k (antibody, human IgG1, kappa, V domains shown)
VH: B5 VH with K56R, R61H
VL: B5 VL

The remaining lines, values behind:

B1: H124-G1d/LB-k (antibody, human IgG1, kappa, V domains shown)
VH: B5 VH with Y33R, K56G, Q57N, R101T, E102L
VL: B5 VL with R94L
binding [1]: binds

B2: H112-G1d/LB-k (antibody, human IgG1, kappa, V domains shown)
VH: B5 VH with I51R, K56G, Q57N, R101T, E102L
VL: B5 VL with R94L
binding [1]: binds

B3: H154-G1d/LB-k (antibody, human IgG1, kappa, V domains shown)
VH: B5 VH with K56R, Q57N
VL: B5 VL with R94L
binding [2]: binds | binding [3]: binds | binding [4]: binds | binding [5]: binds

B4: H119-G1d/LB-k (antibody, human IgG1, kappa, V domains shown)
VH: B5 VH with K56G, Q57N, K59R, R101T, E102L
VL: B5 VL with R94L
binding [1]: binds

B6: H205-G1d/LB-k (antibody, human IgG1, kappa, V domains shown)
VH: B5 VH with K56R, F105Y
VL: B5 VL with R94L
binding [2]: binds | binding [3]: binds | binding [4]: binds | binding [5]: binds

B7: H111-G1d/L47-k (antibody, human IgG1, kappa, V domains shown)
VH: B5 VH with K56G, Q57N, R101T, E102L
VL: B5 VL with N93R, R94L
binding [1]: binds

B8: H133-G1d/LB-k (antibody, human IgG1, kappa, V domains shown)
VH: B5 VH with K56R, Q57N, R101T, E102R
VL: B5 VL with R94L
binding [1]: binds

B10: H131-G1d/LB-k (antibody, human IgG1, kappa, V domains shown)
VH: B5 VH with K56R, Q57N, G100R, R101T, E102L
VL: B5 VL with R94L
binding [1]: binds

B11: H197-G1d/LB-k (antibody, human IgG1, kappa, V domains shown)
VH: B5 VH with K56R, R61H, E102S
VL: B5 VL with R94L
binding [2]: binds | binding [3]: binds | binding [4]: binds | binding [5]: binds

B12: H150-G1d/L21-k (antibody, human IgG1, kappa, V domains shown)
VH: B5 VH with K56R, Q57N, E102S
VL: B5 VL with K24Q, R94L, K106E
binding [2]: binds | binding [3]: binds | binding [4]: binds | binding [5]: binds

B15: H168-G1d/LB-k (antibody, human IgG1, kappa, V domains shown)
VH: B5 VH with K56R, Q57S, R101T, E102S
VL: B5 VL with R94L
binding [2]: binds | binding [3]: binds | binding [4]: binds | binding [5]: binds

B19: H193-G1d/LB-k (antibody, human IgG1, kappa, V domains shown)
VH: B5 VH with K56E, E102S
VL: B5 VL with R94L
binding [2]: binds | binding [3]: binds | binding [4]: binds | binding [5]: binds

B22: H204-G1d/LB-k (antibody, human IgG1, kappa, V domains shown)
VH: B5 VH with K56R, S88A
VL: B5 VL with R94L
binding [2]: binds | binding [3]: binds | binding [4]: binds | binding [5]: binds

B27: H197-G1d/L48-k (antibody, human IgG1, kappa, V domains shown)
VH: B5 VH with K56R, R61H, E102S
VL: B5 VL
binding [2]: binds | binding [3]: binds | binding [4]: binds | binding [5]: binds

B28: H154-G1d/L48-k (antibody, human IgG1, kappa, V domains shown)
VH: B5 VH with K56R, Q57N
VL: B5 VL
binding [2]: binds | binding [3]: binds | binding [4]: binds | binding [5]: binds

B29: H183-G1d/LB-k (antibody, human IgG1, kappa, V domains shown)
VH: B5 VH with K56R
VL: B5 VL with R94L
binding [2]: binds | binding [3]: binds | binding [4]: binds | binding [5]: binds

B30: H183-G1d/L21-k (antibody, human IgG1, kappa, V domains shown)
VH: B5 VH with K56R
VL: B5 VL with K24Q, R94L, K106E
binding [2]: binds | binding [3]: binds | binding [4]: binds | binding [5]: binds

B31: H206-G1d/L53-k (antibody, human IgG1, kappa, V domains shown)
VH: B5 VH with K13N, K56R
VL: B5 VL with K24R, R94L
binding [3]: binds | binding [4]: binds

B32: H183-G1d/L48-k (antibody, human IgG1, kappa, V domains shown)
VH: B5 VH with K56R
VL: B5 VL
binding [2]: binds | binding [3]: binds | binding [4]: binds | binding [5]: binds

B34: H166-G1d/LB-k (antibody, human IgG1, kappa, V domains shown)
VH: B5 VH with K56R, R101T, E102S
VL: B5 VL with R94L
binding [2]: binds | binding [3]: binds | binding [4]: binds | binding [5]: binds
